Assay results taken from publication PMC12584617.
For part of these data: Negatives hold for the conditions tested. For part of these data: At least one verdict was read from the data and is not stated in words by the source. Where a protein sequence is shown, tags need not be part of it. Construct, isoform or probe ends are uncertain for at least one entry. For part of these data: A weaker result is weaker than the reference pair of the same experiment.

Assays:
Assay in all cases: EMSA
[1] = system: T1, NsrM (All0345) (Anabaena sp. strain PCC 7120); details: 10 mM Bis-Tris-HCl pH 7.5, 40 mM KCl, 0.1 mg/mL BSA, 5% glycerol, 50 ng DNA, 50-100 ng ifpkn22 competitor, 30 min room temperature, recombinant protein, residues 1-290, protein details: His-tag (pET28 NdeI/SalI), probe letters rebuilt from the primers and the genome
T1 sequence (looked up): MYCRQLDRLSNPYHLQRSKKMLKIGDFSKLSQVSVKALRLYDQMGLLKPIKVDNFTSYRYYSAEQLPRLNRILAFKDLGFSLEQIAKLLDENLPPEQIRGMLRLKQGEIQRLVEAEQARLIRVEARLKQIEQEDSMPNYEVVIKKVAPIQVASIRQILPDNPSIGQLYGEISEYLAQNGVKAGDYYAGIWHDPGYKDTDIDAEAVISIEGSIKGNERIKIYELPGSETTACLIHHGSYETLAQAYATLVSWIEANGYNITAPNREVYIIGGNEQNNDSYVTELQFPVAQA

[2] = target: T2, NtcA (UniProt P0A4U6); details: 10 mM Bis-Tris-HCl pH 7.5, 40 mM KCl, 0.1 mg/mL BSA, 5% glycerol, 50 ng DNA, 50-100 ng ifpkn22 competitor, 30 min room temperature; recombinant protein; protein details: His-tag; probe letters rebuilt from the primers and the genome
T2 sequence (looked up, limits assumed): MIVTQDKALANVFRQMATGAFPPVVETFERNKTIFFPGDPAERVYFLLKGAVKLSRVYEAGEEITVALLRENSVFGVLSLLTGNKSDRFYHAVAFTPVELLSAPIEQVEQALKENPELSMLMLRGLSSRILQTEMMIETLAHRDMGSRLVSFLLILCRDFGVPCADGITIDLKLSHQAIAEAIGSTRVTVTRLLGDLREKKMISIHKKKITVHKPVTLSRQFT

[3] = system: T3, NsrX (Alr1976) (Anabaena sp. strain PCC 7120); details: 10 mM Bis-Tris-HCl pH 7.5, 40 mM KCl, 0.1 mg/mL BSA, 5% glycerol, 50 ng DNA, 50-100 ng ifpkn22 competitor, 30 min room temperature, recombinant protein, residues 1-121, protein details: His-tag (pET28 NdeI/SalI), probe letters rebuilt from the primers and the genome
T3 sequence (looked up): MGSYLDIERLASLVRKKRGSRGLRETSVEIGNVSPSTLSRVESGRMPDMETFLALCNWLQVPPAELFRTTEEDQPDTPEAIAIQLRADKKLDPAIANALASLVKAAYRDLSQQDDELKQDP

## AAATGACACGGTAGTCGCTGTTTGTGAGAAAGTCGTTTGTCTTCAACAGTCCTACTGCTGAGGTTATCACTATGCTGCCCAGTAATATTTCTAGGCTCAGAGCAATCATAAGTCTTTTCCTCACACCTTATGTAGCTGTTGATGGTTGACTGTTGTCTGTTGACAGACTTGAAAGCCTTTTATGGTCAGAGTTTTGTCTTAGCTTGATGTCCTAATCTATCTGACTATGGCTATATATCAAAAATACTCAAAAAAGACTCTTGACTCTACCCTTAGGGCAGGGTGTGTACTGTAGACAGTTGGATAGATTAAGTAATCCATATCACCTACAGCGCAGT (double strand) [PnsrM]
[1]; 1 mM DTT, metal-independent
  binding result: binds
[1]; no DTT (binding required reducing conditions)
  binding result: binds more weakly
[2]
  binding result: binds

## ACGCGGATATGGTACAGCAGTTAACTCTAGTGCTAGTTTATTCAGACCATGACGTAGTAGTTCTGGATATGGATACTTGCCATCTCGGCGGACAAACTCTGCTAAACCAATAACAAGACTGTTAAATTCGCTAATTTCCATAAGCGATCATCCTTCTTTGAGAGGATTTACTCAGCACCACGCTTTTTTCATTCATGATACATTTGTTGCACATACCATACAGGATTATTTATGGTGTGTCAACTAAGAAACGATTGATTTTTACGTGACGCAAGGATAGGAGAATGGGAAGTTATCTAGATATAGAACGCTTGGCGAGCCTAGT (double strand) [PnsrX]
[3]; with or without 100 uM Mn2+ and 1 mM DTT (high affinity in all)
  binding result: binds
[2]
  binding result: binds

## GGCATTTCTCTCATGATATAGAGTGTTTCTGTAGCTAAGGTATTCTTTGTAACTCACGAAGTTGAGGACGAAATTATTTGGAGTTTGACAAATCTGTCTGTAATCACACAGGTTATAAATCTTGCTGGTGAGAAAATATATATAGAGATAGGTTGATTAGTTTTAAAAAAGAGTATGCCAATATACTAAATTCGTATTTTTATAAATGATTTAAAAAAATAGAAAGTTATATTTTTTTGATGAATATTCGATAAATACTAATTCTTTAAGTCTATTAATTTGTTATTTATGTAATATCACTTACGTAATTAAAGATAATACTAGGGCTTCCTACATCCTAAATGTGATTTTCTTCAATTTTCATCCTCTAGGG (double strand) [PhepB distal]
[3]
  binding result: no binding
[1]; 1 mM DTT
  binding result: binds

## GGCGTGTGGCTCTTGTTCTAGTAGTACAGCCACCTTAAAGATAGCGATTGAATCCAGATTACGCGATCGCATCAACCCCAGCCTAGTAGTAGAAGCAGTTTAGTTAACAGTTAACAGTAAACCGTTAACTAACACCCAAAAGAACTTTCACAACTACATAACGAACCCATCATGAACACTAATTCTACTGGTTTTTCTGTGGAGCGATCGCCCCCTCTTCGGCGACGTTCTACAAACCCCTCACAGCCATAGCTCAACAGGCGTGAGATCCAAACACAAAGACCGACCAACTAACCAACC (double strand) [PnifHDK]
[3]; no metal
  binding result: binds more weakly
[1]
  binding result: no binding

## GGGTGAATAATGCCCTGCACAACTATAAAATTGTGAGCAATACCCACCCTATACTTATTTCAGCAAGCAAGTAAAAATCCTATATAGGACTCATATTTGATTTCTGAAAAACCAAATTGGCTAGAAGCTTGCTATACAGAGCTTTGTTTCTCAGTATACGTAGCAAAATTCAAGTACGATTCCTATAGATGAATTACTACACTTTAGTTAAAAATTAGGTTGTCACGGTTCAAAAAATTGTCTTAGAAAATATACAACGCATTTAAAAATGCCAAAATCACCACATAAATTATTTAAAGCTAATAGCTTCTGGAAAGAG (double strand) [PhepA proximal]
[3]; 100 uM Mn2+
  binding result: binds
[3]; no metal
  binding result: binds more weakly
[1]
  binding result: no binding

## GTAATCGGAAGTGTTTTCATGGCGATCGCTCTGTTATTAAATCAAGATTTAAAATAAAAATTAGGGAAAAGGCTTTTCCTGTAGGTAAATGTATTTCTGAGAATATATTTACCTAAGTTCAGCAATTTACAGTTAAGTCAACACAGTTAGTCTTTATTTTTTATTTTCACGCCAATCTTTCCACTCAGGAGAGTTCTACACCGTCAGTGCTACTCTCCTGAGTGGAATAGTTTCATGATGTCAAACAGAAAAATTGTTCAACCGATTACTAGAAAACATTCTTTCAAAAATCAGGTTGCTTTTCTGTATCTTTCATTAACTTGGCTAATCTAACAGTACCTTAAGTACTACACGTATAGTTATTGGCTCAAACC (double strand) [PpatA]
[3]
  binding result: no binding
[1]; 1 mM DTT
  binding result: binds

## TCTGGTTGATTACGTTTGGGTTTAGATTTTAGTGAGATCATATTTTGTGAATTAGAGGGAGAAAAAGCGAAATCGTGACTAGCTATTCCCAGGTAATCAGAAACTAGGGAACCAAGTACTAGACTCGAAATTAAAACTGGAACAGCAGCACGCATCATAAAAGTCTCTTTGTAAATTCTCTTATCTATTGCTACTGAGTTTTATATAACGAGTCCGGAAGAATCTAAAAAAAAGTAGTGCTTTTTACTGAAAATCCATGAAAGTGTGCATGGTGTCAATATATTCCACCAACAACCAATGACCGGAAGGATTGAGATGACCCCGAACCGTCAGATGTTGCTT (double strand) [PpatX]
[3]
  binding result: no binding
[1]; 1 mM DTT
  binding result: binds

## TTGGCAAATCTTGCGGCAAGGAGCAGTAAGTTTAGAGTTTTAGGGCATAAAAAGGAGGAAAGTAGGGGAATATGGGGCAAAACGAAAAACTGAGAAAAGAACTATTTCCCTTTTTCTCCCTGCTCTCTACCTCTCTCCCCAGCCCGCAATCCCCACTTCCATTTTTTAGACAGTTATAATGTTGGTCTCCTGATTTTTAGGCAGTGAATTAGTGAAGAACTTGTTGGATCAAGCAGAACTGATGAACTAAAAAATAAGGAAACTGATTTTTATACTTTGTGGTCAATTTAACAAGTTAATAACTGTCTAAATATGAATTGGAGCAACTGGATATATCTAGGAGCCGGATTATTATTGGGGCTTGGTGTTCGTGGTTTATTTGCGCGGTCTACAAATGCCACTGCT (double strand) [PhepN]
[3]
  binding result: no binding
[1]; 1 mM DTT
  binding result: binds
